No constants are given. Whether binding was seen depends on the method and setting. Binding seen in cells or lysates may run through a third protein. Binding can be weak; no strength is given.
Legend:
[1] = target: FZR-1::GFP (C-terminal GFP-tagged FZR-1, strain MTU10) (C. elegans); assay: co-IP; anti-GFP magnetic beads with C. elegans embryonic lysates (lysis buffer 50 mM HEPES pH 7.4, 1 mM EDTA, 1 mM MgCl2, 200 mM KCl, 10% glycerol, protease inhibitors, MG132), 1 hr at 4°, washed in PBST; blot with anti-SAS-5; wild-type N2 embryos as negative control
[2] = target: GFP::FZR-1 (N-terminal GFP-tagged FZR-1, strain OC190) (C. elegans); assay: as above

binding [1]: binds | binding [2]: binds
B1: SAS-5A (SAS-5 isoform A) (protein, UniProt Q20010 1-404)
chain: MNNYDDLPCSIYFKKPTVQEFVDQPRVFEDSEVPAFQEVLQLPQERTKPPVPSTQPIVAAVEVAKKKSCLSAPKPRKEPPSHPALRQKTVAFGKTVNVSQTVEGTSRNSKKVLASTMSAQNTTTTEEQAAENWRDAMKTELQTIRTEIQEETARRQEELNAQNLVKMQELMSNFFQKITIPKQQAIEPVEKDKENFHESPRQSRQQKPASKIASAREVIKRDGVIPPEALTIIEQRLRSDPMFRQQIDNVLADAECDANRAAYSPPPPMSEVRYGSGVNPALMRETLTVERSIRYDNGLASIDSRQWTNERRDNRAPDSYRTYEPDQPCHSLYQKGQSISYYPSEAAGKTTARNNRTGYYVEDSSDHEEDVVVNKRGQNYHEQAVPETPAERERRIREKYARRK

— publication PMC5714490
